According to article PMC12095548:
Results are given in words; binding and its absence hold for the method and conditions named. For part of these data: In cells and extracts the contact can be indirect. Some binding calls cover weakened binding; strength is not graded here. For part of these data: Sequences can lack the tags named with a protein.

Protein sequences, listed by entry. Tags and fused reporters are not part of them. Lines headed by an entry give the natural chain unless they say otherwise; changes in a name come on top. Residues count along the entry.
UniProt P25586: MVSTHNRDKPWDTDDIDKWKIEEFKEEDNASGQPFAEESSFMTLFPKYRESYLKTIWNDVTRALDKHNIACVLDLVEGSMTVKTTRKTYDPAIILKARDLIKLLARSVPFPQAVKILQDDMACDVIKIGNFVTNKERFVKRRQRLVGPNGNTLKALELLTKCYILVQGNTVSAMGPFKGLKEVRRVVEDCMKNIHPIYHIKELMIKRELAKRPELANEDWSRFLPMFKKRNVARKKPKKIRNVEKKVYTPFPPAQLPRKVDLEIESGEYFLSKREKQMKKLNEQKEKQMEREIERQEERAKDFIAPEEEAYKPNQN
Krr1ΔC3-FLAG (Saccharomyces cerevisiae (yeast)): residues 1-247 of P25586
UniProt P05756: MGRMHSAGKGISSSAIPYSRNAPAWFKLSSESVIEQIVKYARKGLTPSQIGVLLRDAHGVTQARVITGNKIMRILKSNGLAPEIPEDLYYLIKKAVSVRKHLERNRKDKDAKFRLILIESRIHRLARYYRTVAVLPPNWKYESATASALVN

T1: Kri1 (Saccharomyces cerevisiae (endogenous in yeast cells)) (UniProt P42846)
T1 sequence: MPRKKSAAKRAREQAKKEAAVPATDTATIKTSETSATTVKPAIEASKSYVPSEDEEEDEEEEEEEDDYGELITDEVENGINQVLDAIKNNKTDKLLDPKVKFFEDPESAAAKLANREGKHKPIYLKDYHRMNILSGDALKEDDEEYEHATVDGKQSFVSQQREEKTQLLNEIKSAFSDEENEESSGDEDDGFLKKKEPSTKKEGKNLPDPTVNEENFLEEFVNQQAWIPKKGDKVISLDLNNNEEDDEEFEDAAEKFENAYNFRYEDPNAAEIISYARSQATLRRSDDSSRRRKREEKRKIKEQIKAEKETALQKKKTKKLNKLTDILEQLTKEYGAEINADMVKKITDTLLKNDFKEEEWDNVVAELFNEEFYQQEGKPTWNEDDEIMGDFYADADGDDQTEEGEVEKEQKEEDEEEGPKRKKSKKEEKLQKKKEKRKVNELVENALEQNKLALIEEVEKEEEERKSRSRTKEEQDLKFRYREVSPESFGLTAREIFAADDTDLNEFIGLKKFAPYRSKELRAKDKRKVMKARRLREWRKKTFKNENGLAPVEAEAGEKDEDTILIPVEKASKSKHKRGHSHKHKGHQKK

T2: protA-TEV-tagged Utp23 (Saccharomyces cerevisiae (yeast)) (UniProt Q12339)
T2 sequence: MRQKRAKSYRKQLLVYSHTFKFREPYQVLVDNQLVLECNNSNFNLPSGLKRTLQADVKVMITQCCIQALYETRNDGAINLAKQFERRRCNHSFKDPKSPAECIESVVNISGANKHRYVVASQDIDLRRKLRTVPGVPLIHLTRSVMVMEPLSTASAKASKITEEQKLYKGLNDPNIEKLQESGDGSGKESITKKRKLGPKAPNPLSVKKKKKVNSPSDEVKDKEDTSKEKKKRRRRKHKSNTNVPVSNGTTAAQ

T3: Cbf5 (Saccharomyces cerevisiae (endogenous in yeast cells)) (UniProt P33322)
T3 sequence: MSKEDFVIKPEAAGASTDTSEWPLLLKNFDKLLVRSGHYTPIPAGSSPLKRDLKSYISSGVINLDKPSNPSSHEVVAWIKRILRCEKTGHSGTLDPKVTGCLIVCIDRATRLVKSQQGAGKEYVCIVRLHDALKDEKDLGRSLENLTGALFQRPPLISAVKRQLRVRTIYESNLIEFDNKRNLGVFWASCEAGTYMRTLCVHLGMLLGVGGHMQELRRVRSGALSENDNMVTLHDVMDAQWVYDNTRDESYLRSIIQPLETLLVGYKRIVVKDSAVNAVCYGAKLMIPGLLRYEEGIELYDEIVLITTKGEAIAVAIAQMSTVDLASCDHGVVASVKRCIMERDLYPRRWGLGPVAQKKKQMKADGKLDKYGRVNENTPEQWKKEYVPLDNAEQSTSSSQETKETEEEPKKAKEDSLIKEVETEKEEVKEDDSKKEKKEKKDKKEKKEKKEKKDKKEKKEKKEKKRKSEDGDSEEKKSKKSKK

T4: Gar1 (Saccharomyces cerevisiae (endogenous in yeast cells)) (UniProt P28007)
T4 sequence: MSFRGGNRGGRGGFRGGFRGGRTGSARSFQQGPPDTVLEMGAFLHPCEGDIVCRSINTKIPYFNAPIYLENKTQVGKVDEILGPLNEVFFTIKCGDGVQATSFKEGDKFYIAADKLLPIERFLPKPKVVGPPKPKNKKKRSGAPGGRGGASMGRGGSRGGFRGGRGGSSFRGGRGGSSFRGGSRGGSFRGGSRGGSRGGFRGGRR


Key:
[1] = biological target: T1, Kri1 (Saccharomyces cerevisiae (endogenous in yeast cells)); experiment: cryo-EM structure; snR30 snoRNP purified from yeast via Utp23-Krr1ΔC3 split baits; State 1 at 2.89 Å
[2] = biological target: T1, Kri1 (Saccharomyces cerevisiae (endogenous in yeast cells)); experiment: cryo-EM structure; snR30 snoRNP purified from yeast via wild-type Utp23-Krr1 split baits; two classes at 3.92 and 3.93 Å, maps only
[3] = biological target: T2, protA-TEV-tagged Utp23 (Saccharomyces cerevisiae (yeast)); experiment: co-sedimentation; FLAG eluates of the split-tag purifications on a linear 10–40% sucrose gradient (60 mM Tris-HCl pH 8.0, 50 mM NaCl, 2 mM MgCl2), 16 h at 129,300 × g, 4 °C; fractions by SDS-PAGE, MS and northern blot
[4] = biological target: T3, Cbf5 (Saccharomyces cerevisiae (endogenous in yeast cells)); experiment: cryo-EM structure; snR30 snoRNP purified from yeast via wild-type Utp23-Krr1 split baits; two classes at 3.92 and 3.93 Å, maps only
[5] = biological target: Krr1 (wild type, second bait of the split-tag purification) (Saccharomyces cerevisiae (yeast)) (UniProt P25586); experiment: co-sedimentation; FLAG eluates of the split-tag purifications on a linear 10–40% sucrose gradient (60 mM Tris-HCl pH 8.0, 50 mM NaCl, 2 mM MgCl2), 16 h at 129,300 × g, 4 °C; fractions by SDS-PAGE, MS and northern blot
[6] = biological target: Krr1ΔC3-FLAG (Saccharomyces cerevisiae (yeast)) (UniProt P25586); experiment: as above
[7] = biological target: T4, Gar1 (Saccharomyces cerevisiae (endogenous in yeast cells)); experiment: cryo-EM structure; snR30 snoRNP purified from yeast via Utp23-Krr1ΔC3 split baits; State 1 at 2.89 Å
[8] = biological target: T2, protA-TEV-tagged Utp23 (Saccharomyces cerevisiae (yeast)); experiment: as above
[9] = biological target: T4, Gar1 (Saccharomyces cerevisiae (endogenous in yeast cells)); experiment: cryo-EM structure; snR30 snoRNP purified from yeast via wild-type Utp23-Krr1 split baits; two classes at 3.92 and 3.93 Å, maps only
[10] = biological target: T2, protA-TEV-tagged Utp23 (Saccharomyces cerevisiae (yeast)); experiment: as above

| binding [1] | binding [2] | binding [3] | binding [4] | binding [5] | binding [6] | binding [7] | binding [8] | binding [9] | binding [10] | Molecule |
| --- | --- | --- | --- | --- | --- | --- | --- | --- | --- | --- |
| binds | binds | binds |  |  |  |  |  |  |  | uS15 (Rps13) (from UniProt P05756 1-151) |
|  |  | binds | binds | binds | binds |  |  |  |  | Cbf5 (from UniProt P33322 1-483) (enzyme) |
|  |  | binds |  |  |  | binds | binds | binds | binds | Kri1 (protein, UniProt P42846 1-591) MPRKKSAAKRAREQAKKEAAVPATDTATIKTSETSATTVKPAIEASKSYVPSEDEEEDEEEEEEEDDYGELITDEVENGINQVLDAIKNNKTDKLLDPKVKFFEDPESAAAKLANREGKHKPIYLKDYHRMNILSGDALKEDDEEYEHATVDGKQSFVSQQREEKTQLLNEIKSAFSDEENEESSGDEDDGFLKKKEPSTKKEGKNLPDPTVNEENFLEEFVNQQAWIPKKGDKVISLDLNNNEEDDEEFEDAAEKFENAYNFRYEDPNAAEIISYARSQATLRRSDDSSRRRKREEKRKIKEQIKAEKETALQKKKTKKLNKLTDILEQLTKEYGAEINADMVKKITDTLLKNDFKEEEWDNVVAELFNEEFYQQEGKPTWNEDDEIMGDFYADADGDDQTEEGEVEKEQKEEDEEEGPKRKKSKKEEKLQKKKEKRKVNELVENALEQNKLALIEEVEKEEEERKSRSRTKEEQDLKFRYREVSPESFGLTAREIFAADDTDLNEFIGLKKFAPYRSKELRAKDKRKVMKARRLREWRKKTFKNENGLAPVEAEAGEKDEDTILIPVEKASKSKHKRGHSHKHKGHQKK |
